# From US20110053849
# For at least one entry, the source does not settle the construct or the ends of the probe. At least one result comes from cells or an extract, where the contact may be indirect. No signal at the amounts used counts as a negative.
# Biological target: p53 (wild-type, p53-1) (Homo sapiens) (UniProt P04637)
# Test: EMSA
# Conditions: protein in a lysate after overexpression, protein details: expressed from p53-1 plasmid in U2OS cells, variant of LITAF promoter -600~-400
# [1] = binding completely blocked, label: 32P
Sequence,"binding result (deletion did not significantly affect binding, label: …)",binding result [1]
GCCCCCGCCCCCGTCCCCGCCGCCCGGCCCTTTTCTCGGGGCGCCCGAGAGGCCAGCTCAGACCTCCCGGCTCGACAGGCGGCGCGGGCGGCGGTGAGTG / CCCCAGCCAAGGGCTCAGTGCCCGGGGCCCCCAGCAGGTCCCCGGCGTCCCCGCGCCGCACTCACCGCCGCCCGCGCC [LITAF promoter -600~-400 del -480~-440],binds,
GCCCCCGCCCCCGTCCCCGCCGCCCGGCCCTTTTCTCGGGGCGCGGGCGGCGGTGAGTGCGGCGCGGGGACGCCGGGGCGCGGGGACCAG / CCCAGCCAAGGGCTCAGTGCCCGGGGCCCCCAGCAGGTGCTGGCGCCACCGGCCCCCCGCTGTCTCCCGCTGGTCCCCGCGCCCCGGCG [LITAF promoter -600~-400 del -560~-520],,no binding
GCCCCCGCCCCCGTCCCCGCCGCCCGGCCCTTTTCTCGGGGCGCCCGAGAGGCCAGCTCAGACCTCCCGGCTCGACAGGCCGGGGACCAG / CCCCAGCCAAGGGCTCAGTGCCCGGGGCCCCCAGCAGGTGCTGGCGCCACCGGCCCCCCGCTGTCTCCCGCTGGTCCCCGGCCTGTCGAG [LITAF promoter -600~-400 del -520~-480],,no binding
